In PubChem BioAssay AID493014 (National Center for Advancing Translational Sciences (NCATS), 2011):
The campaign covered roughly 340,000 compounds. About 170 (0.05%) were called active. Inconclusive means that the source gave no clear call. Such entries were picked first, then a sample of the others. Calls come from the whole dose curve; as a rule, active = well fitted inhibition curve with a large enough effect in the signal ratio, with a control signal flat (not every such curve was filed as active); inconclusive = small, poorly fitted or top-dose-only effect, or effect the other way, or a change in a side signal; inactive = flat fitted curve, though single readings scatter; the % refers to the signal ratio. Where the call is inconclusive, the potency comes from a doubtful curve fit.

experiment: qHTS Assay to Find Inhibitors of Chronic Active B-Cell Receptor Signaling; settings: ABC-DLBCL IkBa-CBG/CBR reporter, luminescence ratio (green luciferase fused to IkBa over red control in TMD8 lymphoma cells), 4 h; activity change, negative = inhibition: at 46.1 µM (top of the series);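 for activity change, negative = inhibition: plate controls were basal doxycycline-induced cells for no effect and cells given 10 µM MG132 for full effect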
Summary of the method: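 Concentration-response series (up to 46 uM) were applied to TMD8 dual-reporter cells for 4 h at 37C with doxycycline. Green/red ratio, after filter-overlap correction, defined %Activity; red signal alone was normalised to basal cells and zero luminescence.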
Potency is the fitted concentration of half-maximal effect.

Compound	activity change, negative = inhibition	Potency
Cc1ccsc1C(=O)N/N=C/c1ccc2c(c1)OCO2	inconclusive: 219%	
CCCCNS(=O)(=O)c1ccc2nc(SCC(=O)N3CC(C)OC(C)C3)[nH]c2c1 (stereo unspecified)	inconclusive: 3.6%	
CCC(=O)Nc1cccc(C2=NOC3(C2)C[C@H](C(N)=O)N(C(=O)Cc2ccc([N+](=O)[O-])cc2)C3)c1 (stereo partly specified)	inconclusive: -2.13%	
COc1ccc(C2CC(c3ccc(OC)c(OC)c3)=NN2C(=O)c2ccccc2)cc1 (stereo unspecified)		inconclusive: 12.6 µM [falling, single point]
COc1ccc2nc(N/C(N)=N/C(=S)Nc3ccccc3)nc(C)c2c1	inactive	
CCNS(=O)(=O)c1ccc(Br)c(OC)c1	inactive	
COc1ccc(C(CNC(=O)COc2cc(C)c(Cl)c(C)c2)N2CCCCC2)cc1 (stereo unspecified)	inactive	
Cc1cc(C)c(C)c(S(=O)(=O)N[C@@H](C)C(=O)OC(C)C(=O)NC(N)=O)c1C (stereo partly specified)	inconclusive: 7.92%	
C=C1CCN(CC(=O)OC)S(=O)(=O)c2ccccc21	inconclusive: 2.22%	
CCOc1cccc(C(=O)N/N=C/c2ccoc2)c1		inconclusive: 15.8 µM [falling, partial curve]
CCn1c(SCc2nc3ccccc3c(=O)[nH]2)nnc1-c1ccncc1		inconclusive: 8.2 µM [falling, partial curve, poor fit]
COc1cccc(C(=O)Nc2ccc3c(c2)C(=O)NC3=O)c1		inconclusive: 14.1 µM [falling, partial curve, poor fit]
Nc1ccc(N=Nc2ccccc2)c2ccccc12	inconclusive: 29.8%	
COc1ccc([C@]23Cc4cc(OC)c(OC)cc4C(O2)c2c(cc(C)oc2=O)O3)cc1	inactive: 9.84% [at 9.22 µM]	
O=Nc1ccc(O)c2ncccc12		inconclusive: 22.4 µM [falling, single point]
CCOc1ccc(-n2cc(-c3ccccc3)c3c(=O)[nH]cnc32)cc1	inactive	
C(#Cc1ccc2c(c1)COc1c3ccccc3nn1-2)c1ccccc1	inconclusive: 0.589%	
Cc1ccc(S(=O)(=O)N(Cc2ccc(Cl)cc2)c2ccccc2C(=O)NCc2cccnc2)cc1	inconclusive: -12.2%	
COc1ccc(-c2nc3cc([N+](=O)[O-])ccc3o2)cc1OC		inconclusive: 0.1 µM [rising, full curve, poor fit]
O=C(c1ccc(-c2ccccc2)cc1)N1CCC(C(=O)N2CCCC2)CC1	inconclusive: 6.96%	
COc1ccccc1NC(=S)NC(=O)CCc1ccccc1	inactive	

Compound	activity change, negative = inhibition	Potency
O=C(N/N=C/c1cccc([N+](=O)[O-])c1O)C(O)(c1ccccc1)c1ccccc1	inactive	
Cc1ccc(NC(=O)COC(=O)c2ccc(F)cc2Cl)c(Br)c1	inconclusive: 10.8%	
Cc1c(CN(C)C(=O)/C=C/c2ccc([N+](=O)[O-])cc2)cnn1C	inconclusive: -7.26%	
Cc1ccc(C(=O)NCC(=O)OCCOc2ccccc2Cl)cc1	inconclusive: 12.8%	
Cc1ccc2nc(NCCC(=O)O)nc(-c3ccccc3)c2c1	inactive	
O=C(c1cccnc1)C1Cc2ccccc2C1=O (stereo unspecified)	inconclusive: 6.66%	
COc1ccc2sc(NC(=O)CC(C)C)nc2c1		inconclusive: 15.8 µM [falling, partial curve]
COc1cccc(-c2nc(N3CCN(Cc4ccccc4)CC3)c3ccccc3n2)c1O	inconclusive: 3.68%	
Cc1c(C(=O)NCC2COc3ccccc3O2)oc2ccc(S(=O)(=O)N(C)C3CCCCC3)cc12 (stereo unspecified)	inconclusive: 3.71%	
O=C(Cc1ccccc1)NCc1cccnc1	inactive	
CC(C)NC(=O)c1ccc(OC2CSC2)cc1	inconclusive: 1.11%	
Cc1ccc(/C=C/C(=O)N2CCc3ccccc32)o1	inconclusive: -9.45%	
O=C1CCc2cc(S(=O)(=O)N3CCC(C(=O)NC4CCCc5ccccc54)CC3)ccc2N1 (stereo unspecified)		inconclusive: 0.651 µM [falling, partial curve, poor fit]
COc1cccc(NC(=O)CN(C)C(=O)c2cn(-c3ccccc3)nc2-c2cccnc2)c1	inconclusive: -0.736%	
CCn1c(O)c(/C=C2\C=Nc3ccccc32)sc1=O		inconclusive: 25.1 µM [falling, single point]
Cc1[nH]n(-c2cccc(Cl)c2)c(=O)c1/C=N/n1c(C)nc2ccccc2c1=O		inconclusive: 4.11 µM [rising, full curve, poor fit]
COc1ccccc1N1C(=O)C2CC=CC(C)C2C1=O (stereo unspecified)	inactive	
O=C(O)c1ccc(N2C(=O)/C(=C/C=C/c3ccccc3)SC2=S)cc1		inconclusive: 5.01 µM [falling, full curve]
O=C(NCCCN1CCOCC1)c1ccc(Sc2ccccc2Cl)c([N+](=O)[O-])c1	inactive	
COc1ccc(C)cc1N=Nc1ccc(O)c2ncccc12	inactive	
CC(=O)Nc1ccc(N2C(C(C)=O)=NN(c3ccccc3)C2c2cccs2)cc1 (stereo unspecified)		inconclusive: 22.4 µM [falling, single point]

Given with each value named: entries from further up
COc1ccc2nc(N/C(N)=N/C(=S)Nc3ccccc3)nc(C)c2c1
  activity change, negative = inhibition: inactive
CCNS(=O)(=O)c1ccc(Br)c(OC)c1
  activity change, negative = inhibition: inactive
COc1ccc(C(CNC(=O)COc2cc(C)c(Cl)c(C)c2)N2CCCCC2)cc1 (stereo unspecified)
  activity change, negative = inhibition: inactive
Cc1cc(C)c(C)c(S(=O)(=O)N[C@@H](C)C(=O)OC(C)C(=O)NC(N)=O)c1C (stereo partly specified)
  activity change, negative = inhibition: inconclusive: 7.92%

The listing continues.

Compound	activity change, negative = inhibition	Potency
NC(=O)c1nsc(C(=O)N(CC(=O)NCc2ccco2)c2ccccc2F)c1N		inconclusive: 25.9 µM [falling, single point]
COc1cccc(C(=O)CSc2nnc(CNS(C)(=O)=O)n2-c2ccc(C)cc2)c1		inconclusive: 15.8 µM [falling, partial curve, poor fit]
Cc1cc(CNCc2cn(C)nc2-c2ccc(Oc3ccccc3)cc2)on1		inconclusive: 11.2 µM [rising, partial curve, poor fit]
COCCCNC(=O)Cn1nnc(-c2ccc(NC(=O)c3ccccc3OC)cc2)n1	inconclusive: -13.8%	
CCN1CCN(Cc2c3ccccc3cc3ccccc23)CC1	inactive	
COc1ccc(Cc2cc(NCc3ccccc3)c3ncn(C(C)C)c3c2)cc1	inconclusive: -0.529%	
C=CCOC(=O)C1=C[C@@H](c2ccc(Br)cc2)[C@H](CCCO)[C@@H](OCC)O1	inconclusive: 21%	
COC(=O)Cn1c(=NC(=O)c2cccc(OC)c2)sc2cc(OC)ccc21		inconclusive: 5.8 µM [falling, partial curve]
O=C(NC(C(=O)N/N=C/c1ccccc1)c1n[nH]c(=O)c2ccccc12)c1ccccc1 (stereo unspecified)	inactive	
CCCn1c2ccccc2c2cnn(CC(=O)Nc3ccccc3OC)c(=O)c21	inactive	
CCN(CC)c1ccc(C2CC(=O)Nc3cc(OC)c(OC)cc32)cc1 (stereo unspecified)	inactive	
COc1ccc(-c2cc([C@H]3[C@H]4C=CC[C@@H](C)[C@@H]4C(=O)N3Cc3ccccc3)ccc2F)cc1OC	inactive	
O=C(CN1CCOCC1)Nc1nc(-c2ccccc2)cs1	inconclusive: 0.08%	
CCOC(=O)C1(Cc2ccc(Cl)cc2)CCN(C(=O)CCc2ccncc2)CC1	inactive	
COc1ccccc1-c1ccc(/C=N/O)o1		inconclusive: 15.8 µM [falling, single point]
CCCCNS(=O)(=O)c1ccc2nc(-c3cccnc3)cc(C(=O)NC3CCCC3)c2c1	inconclusive: -1.67%	
O=c1cc(-c2ccccc2Cl)oc2c(NS(=O)(=O)c3ccccc3OC(F)(F)F)ccc(O)c12	inconclusive: -0.779%	
CCOC(=O)c1sc(NC(=O)Nc2cccc(Cl)c2)cc1C	inconclusive: -12.3%	
CNCCCC1Sc2ccccc2Oc2ccccc21 (stereo unspecified)		inconclusive: 7.31 µM [falling, partial curve]
Cc1ccc(C(=O)COC(=O)CN2C(=O)C3C4CC(C(Br)C4Br)C3C2=O)cc1 (stereo unspecified)	inactive	
CCOC(=O)Cn1c(=O)c(C#N)cn(C(C)C)c1=O	inconclusive: 13.1%	

Compound	activity change, negative = inhibition	Potency
COc1cc(OC)c(OC)cc1CNC1CCCCCC1	inactive	
COc1ccc(CN(CC(=O)NCC2CCCO2)C(=O)CCC(=O)Nc2nccs2)cc1 (stereo unspecified)	inconclusive: 4.3%	
COc1cccc(C(=O)Nc2ccc(F)cc2F)c1		inconclusive: 20.6 µM [falling, partial curve]
CCCCN1C(=O)CC(C(=O)OCC)=C1C	inconclusive: 4.6%	
COCCNc1nc(NCc2ccccc2)c2cnn(C)c2n1	inactive	
CC(=O)c1c(C)[nH]c(C(=O)CN2C(=O)NC(C)(c3ccc4c(c3)OCO4)C2=O)c1C (stereo unspecified)	inconclusive: -4.48%	
Cc1ccc(-c2csc(N3CCN(c4cc5c(cc4Cl)nc(-c4ccncc4)n5CCOCCO)CC3)n2)cc1	inconclusive: 5.1%	
Cc1ccc(C)c(OCCOCCN2CC(C)OC(C)C2)c1C (stereo unspecified)	inconclusive: 10.9%	
COc1ccc(C=C2C=C(C(C)(C)C)C(=O)C(C(C)(C)C)=C2)cc1OC		inconclusive: 28.2 µM [falling, partial curve, poor fit]
C=CCn1c(SCC(=O)N2CCN(c3ccccc3)CC2)nnc1-c1ccco1	inconclusive: 14.2%	
CCOC(=O)/C(C#N)=C/NC(=O)NC(C)(C)C	inconclusive: -12.1%	
O=C(CC(=O)c1ccccc1)Nc1cccnc1		inconclusive: 18.4 µM [falling, single point]
CC(C)(C)n1nc2c(c1NC(=O)Cc1cccs1)CSC2	inconclusive: 14.3%	
O=C(/C=C/Nc1ccc(F)c(F)c1)c1ccc(Br)cc1		inconclusive: 20.6 µM [falling, partial curve, poor fit]
CCN(CC)Cc1cc2[nH]c3c4ccc(Cl)cc4ncc3c2cc1OC	inconclusive: 19.5%	
N#CCn1c(C2CCCCC2)nc2ccccc2c1=O	inconclusive: -15.9%	
COc1cc(OC)cc(C(=O)NC(=S)Nc2nc(-c3cc4ccccc4o3)cs2)c1	inconclusive: 8.71%	
CCOc1ccc2oc(C(=O)N(CCOC)c3c(N)n(CC(C)C)c(=O)[nH]c3=O)c(C)c2c1	inactive	
